In the supplement of paper PMC4371806:
Whole data set: some 1,600 compounds, median “plate-normalized OD600 growth (mean of duplicates)” near 0.31, cut for the lowest 2% near 0.23. Some of the results follow.

Test system: Escherichia coli BW25113
Assay: plate-normalized OD600 growth (mean of duplicates) (OD600 (normalized)); higher = more growth (less inhibition)
Settings: 10 µM
Description: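 E. coli BW25113 in LB (100 µl, 96-well, no shaking) was exposed to 10 µM of each compound (here the ChemBridge subset of a ~30,000-member library) and grown at 37°C for 24 h or 15°C for 48 h, in duplicate. Growth was read as OD600 and the duplicate ODs were normalized across screening plates to correct plate-to-plate variation.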

Structure (SMILES) | plate-normalized OD600 growth (temperature: 15°C, 48 h) | plate-normalized OD600 growth (temperature: 37°C, 24 h)
COc1ccc(C2=CSC3=NCCN23)cc1F | 0.25 | 0.598
Cc1sc(NC(=O)c2ccc3c(c2)OCO3)c(C#N)c1C | 0.253 | 0.624
O=[N+]([O-])c1ccc(CN2CCN(C/C=C/c3ccccc3)CC2)o1 | 0.23 | 0.621
Cc1nc([N+](=O)[O-])cn1CC(=O)Nc1ccc(Cl)cc1 | 0.251 | 0.604
CC(C1CC1)N1C(=O)C2C(C1=O)C1C=CC2C12CC2 (stereo not drawn) | 0.235 | 0.631
O=C1c2ccccc2C(=O)N1CCc1c[nH]c2ccc(O)cc12 | 0.248 | 0.62
O=C(O)c1ccc(NS(=O)(=O)c2cccc(C(=O)Nc3cccc([N+](=O)[O-])c3)c2)cc1 | 0.231 | 0.595
CN1C(=O)CC(N2CCN(C(=O)c3ccccc3)CC2)C1=O (stereo not drawn) | 0.255 | 0.626
Nn1cnc2scc(-c3ccc(Cl)cc3)c2c1=O | 0.24 | 0.617
COc1cc(OC)cc(C(=O)Nc2cccc(C)c2C)c1 | 0.253 | 0.63
COc1ccc(NC(=O)c2ccc(C)cc2)c(OC)c1 | 0.24 | 0.633
O=C(Nc1ccccc1)c1cccc(S(=O)(=O)NCc2ccccc2)c1 | 0.246 | 0.616
O=C(Nc1ccc(Br)cc1)c1cccnc1 | 0.244 | 0.633
CC(C)(C)C(=O)ON1C(=O)c2ccccc2C1=O | 0.25 | 0.616
COc1ccc(NC2CC(=O)N(c3cccc(Br)c3)C2=O)cc1 (stereo not drawn) | 0.248 | 0.611
CN(C)c1ccc2c(c1)OC(N)=C(C#N)C2c1ccc(F)c(Br)c1 (stereo not drawn) | 0.244 | 0.6
COc1cccc(N2CCN(Cc3ccco3)CC2)c1 | 0.237 | 0.613
CSc1nc(N)c2c3c(sc2n1)CCC3 | 0.252 | 0.62
CCC1CCC(NCCN2CCOCC2)CC1 (stereo not drawn) | 0.255 | 0.62
N#Cc1c(-c2ccccc2)cc(-c2ccccc2)nc1SCC(=O)O | 0.231 | 0.59
COc1cc(C)c(N)cc1C(C)C | 0.226 | 0.6
N#Cc1nc(-c2ccccc2)cc(-c2ccccc2)n1 | 0.261 | 0.634
O=C(Nc1cccc2c1CCCC2)c1ccccc1F | 0.243 | 0.609
O=C1c2ccccc2C(=O)N1CC(=O)N(Cc1ccccc1)c1cccc([N+](=O)[O-])c1 | 0.241 | 0.604
CCOCc1ccc(O)c2ncccc12 | 0.258 | 0.615
O=C(Nc1ccccc1O)c1ccc([N+](=O)[O-])cc1 | 0.236 | 0.621
COc1ccc(OC)c(Nc2nc3nonc3n3nnnc23)c1 | 0.232 | 0.62

Structure (SMILES) | plate-normalized OD600 growth (temperature: 15°C, 48 h) | plate-normalized OD600 growth (temperature: 37°C, 24 h)
COc1ccc(-c2nocc2C#N)cc1 | 0.251 | 0.64
O=C1c2cccc([N+](=O)[O-])c2C(=O)N1n1cnnc1 | 0.258 | 0.629
O=C(NCc1ccccc1)NC(=O)c1cccnc1 | 0.256 | 0.605
Cc1ccc([N+](=O)[O-])cc1NS(=O)(=O)c1cc(Cl)ccc1Cl | 0.236 | 0.586
COc1ccc(OC)c(NC(=O)c2c(OC)cccc2OC)c1 | 0.255 | 0.618
O=C(O)CCC(=O)Nc1ccc(I)cc1 | 0.241 | 0.586
COc1cc(C)c(CN2CCN(c3ccc([N+](=O)[O-])cc3)CC2)cc1C | 0.239 | 0.607
N#Cc1c(NC(=O)c2cc3ncc(Br)cn3n2)sc2c1CCCC2 | 0.263 | 0.623
NC(=O)c1cccc(NC(=O)Nc2ccc(Cl)cc2)c1 | 0.249 | 0.602
O=C(COc1ccc(Br)cc1)NC1CCCC1 | 0.25 | 0.6
CC(=O)n1c2ccccc2c2c1c1ccccc1n2C | 0.25 | 0.591
CC(C)CCNC(=O)C1CC(=O)N(c2ccc(F)cc2)C1 (stereo not drawn) | 0.239 | 0.606
OC1CCN(Cc2cc(Br)cs2)CC1 | 0.26 | 0.659
Cc1cc(Cl)ccc1OCCCC(=O)NN1CCOCC1 | 0.284 | 0.634
c1ccc(N2CCN(CC3CCCCC3)CC2)cc1 | 0.255 | 0.654
COc1cc(OC)c(C2C(C#N)=C(N)Oc3cc(N)ccc32)cc1Br (stereo not drawn) | 0.23 | 0.62
Cc1sc(-c2c(C#N)c(N)nc3c2CCCCC3)cc1[N+](=O)[O-] | 0.271 | 0.631
OCCN1C2=NCCCN2c2ccccc21 | 0.244 | 0.616
Cc1cccc(NC(=O)COc2ccc(C)c(C)c2)c1 | 0.237 | 0.601
O=C(Nc1ccccc1)N1CCN(c2ccc([N+](=O)[O-])cc2)CC1 | 0.256 | 0.63
O=C(c1cccc(Br)c1)n1cnc2ccccc21 | 0.244 | 0.631
COc1ccc(-c2cc(=O)n(CCC#N)[nH]2)cc1 | 0.266 | 0.622
O=C(COc1ccc([N+](=O)[O-])cc1)NCCc1ccccc1 | 0.244 | 0.624
CCN(CC)CCN(C)Cc1cccc([N+](=O)[O-])c1 | 0.245 | 0.601
Oc1ccc(C2CC3CCC2C3)cc1O (stereo not drawn) | 0.263 | 0.65
COc1cc2c(cc1OC)C(c1ccccc1)=NCC2 | 0.241 | 0.611
CCOC(=O)N1CCN(Cc2cc(C)ccc2C)CC1 | 0.266 | 0.646

Nothing new here: an excerpt of the list.
Structure (SMILES) | plate-normalized OD600 growth (temperature: 15°C, 48 h) | plate-normalized OD600 growth (temperature: 37°C, 24 h)
OC1CCN(Cc2cc(Br)cs2)CC1 | 0.26 | 0.659
Cc1cc(Cl)ccc1OCCCC(=O)NN1CCOCC1 | 0.284 | 0.634
c1ccc(N2CCN(CC3CCCCC3)CC2)cc1 | 0.255 | 0.654
COc1cc(OC)c(C2C(C#N)=C(N)Oc3cc(N)ccc32)cc1Br (stereo not drawn) | 0.23 | 0.62
